{
  "sequences": {"note": "Protein sequences, listed by entry. Tags and fused reporters are not part of them. Lines headed by an entry give the natural chain unless they say otherwise; changes in a name come on top.", "UniProt Q7Z7D3": "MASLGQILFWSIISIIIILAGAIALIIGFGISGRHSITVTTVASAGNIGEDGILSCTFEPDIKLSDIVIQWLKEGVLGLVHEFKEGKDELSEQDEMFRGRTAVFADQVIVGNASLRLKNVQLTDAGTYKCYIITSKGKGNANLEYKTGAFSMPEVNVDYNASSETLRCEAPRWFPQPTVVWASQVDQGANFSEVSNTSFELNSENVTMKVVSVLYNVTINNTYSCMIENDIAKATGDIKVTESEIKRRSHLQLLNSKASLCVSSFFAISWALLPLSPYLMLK"},
  "source": "patent US20210032347A1",
  "about": "(JIANGSU HANSOH PHARMACEUTICAL GROUP, published 2021)",
  "note": "No constants are given. Whether binding was seen depends on the method and setting. Some results given as binding are weak or reduced against the parent protein; the word gives no strength.",
  "data": [
    {"target": "Human B7-H4 with HisFlag tag (huB7-H4-his) (human) (UniProt Q7Z7D3)", "experiment": "SPR Biacore, as in Example 5", "values": [
      {"binder": "humanized anti-B7-H4 antibody hu2F7 (antibody, human IgG1, kappa, V domains shown, human IgG1 / kappa; also called humanized antibody 2F7) VH: EVQLVESGGGLVQPGGSLRLSCAASGFTFSNYYMSWVRQAPGKGLEWVAYVSSGGGSTYYSDSVKGRFTISRDNAKNTLYLQMSSLRAEDTAVYYCTRESYSQGNYFDYWGQGTTVTVSS VL: EIVMTQSPATLSLSPGERATLSCRASQSISDYLHWYQQKPGQSPRLLIKFASQSISGIPARFSGSGSGTDFTLTISSLEPEDFAVYYCQNGHSFSLTFGQGTKLEIKR", "binding": "binds"},
      {"binder": "humanized anti-B7-H4 antibody hu2F8 (antibody, human IgG1, kappa, V domains shown, human IgG1 / kappa; also called humanized antibody 2F8) VH: EVQLVQSGAEVKKPGASVKVSCKASGYTFTSSWMNWVRQAPGQRLEWMGGIYPNRGNIEYNEKFKGRVTLTVDTSASTAYMELSSLRSEDTAVYYCARDSRFSYWGQGTLVTVSS VL: DIQMTQSPSSLSASVGDRVTITCKASQDVRTAVAWYQQKPGKAPKLLISSTSYRYTGVPSRFSGSGSGTDFTFTISSLQPEDIATYYCQQHYSTPLTFGGGTKVEIKR", "binding": "binds"},
      {"binder": "humanized anti-B7-H4 antibody hu1C9 (antibody, human IgG1, kappa, V domains shown, human IgG1 / kappa; also called humanized antibody 1C9) VH: EVQLVQSGAEVKKPGASVKVSCKASGDTFTTYWMNWVRQAPGQRLEWMGGIYLNRGSSEYNEKFKGRVTLTVDTSASTAYMELSSLRSEDTAVYYCARDSRFSYWGQGTLVTVSS VL: DIQMTQSPSSLSASVGDRVTITCKASQDVSTAVAWYQQKPGKAPKLLISSASYRYTGVPSRFSGSGSGTDFTFTISSLQPEDIATYYCQQHYNTPLTFGGGTKVEIKR", "binding": "binds"},
      {"binder": "humanized anti-B7-H4 antibody hu2G6 (antibody, human IgG1, kappa, V domains shown, human IgG1 / kappa; also called humanized antibody 2G6) VH: EVQLLESGGGLVQPGGSLRLSCAASGFTFSRYGMSWVRQAPGKGLEWVSGINGGGSYTYYLDTVKGRFTISRDNARNTLYLQMSSLRAEDTAVYYCVSQGSNYYFDYWGQGTLVTVSS VL: DIRMTQSPSSLSASVGDRVTITCHASQGISSNIGWLQQKPGKAPKALIYHGTNLEDGVPSRFSGSGSGADYTLTISSLQPEDFATYYCVQYAQFPYTFGGGTKVEIKR", "binding": "binds"}
    ]},
    {"target": "Human B7-H4 with HisFlag tag (huB7-H4-his) (human) (UniProt Q7Z7D3)", "experiment": "in vitro ELISA binding assay (FIG. 1)", "values": [
      {"binder": "chimeric antibody 2A10 (antibody, human IgG1, V domains shown) VH: EVQLVESGGGFVKPGGSLKLSCAASGFTFSTFGMSWVRQTPDKRLEWVAGISPGGSYTYYPDTVKGRFTISRDNARNTLYLQMSSLRSEDSAMYYCTRGRSVWGTGTTVTVSS VL: DILMTQSPSSMSVSLGDTVSITCHASQDISSNIGWLQQKPGKSFKGLIYHGTTLEDGIPSRFSGSGSGADYSLTISSLESEDFADYYCVQSAQFPWTFGGGTKLEIK", "binding": "binds"},
      {"binder": "chimeric antibody 2F4 (antibody, human IgG1, V domains shown, also called ch-2F4) VH: EVQLVESGGGLVKPGGSLKLSCAASGLTFSRYAMSWVRQTPEKRLEWVAGISSGGSYTYYSDTVKGRFTISRDNVRNTLYLQMSSLRSEDTAMYYCGREYGRDYWGQGTSVTVSS VL: DILMTQSPSSMSVSLGDTVSITCHASQGINSNIGWLQQKPGKSFKGLIYHGTNLEDGVPSRFSGSGSGTDYSLTISSLESEDFADYYCVQYAQFPRTFGGGTTLEIK", "binding": "binds"},
      {"binder": "chimeric antibody 2F7 (antibody, human IgG1, V domains shown, also called ch-2F7) VH: EVQLVESGGGLVQPGGSLKLSCAASGFTFSNYYMSWVRQTPEKRLEWVAYVSSGGGSTYYSDSVKGRFTISRDNAKNTLYLQMSSLKPEDTAMYYCTRESYSQGNYFDYWGQGTTLTVSS VL: DIVMTQSPATLSVTPGDRVSLSCRASQSISDYLHWYQQKSHESPRLLIKFASQSISGIPSRFSGSGSGSDFTLSINSVEPEDVGVYYCQNGHSFSLTFGAGTKLELK", "binding": "binds"},
      {"binder": "chimeric antibody 2F8 (antibody, human IgG1, V domains shown, also called ch-2F8) VH: QVQLQQPGSVLVRPGASVKLSCKASGYTFTNSWMNWAKLRPGQGLEWIGGIYPNSGNIEYNEKFKGKATLTVDTSSSTAYMDLTSLTSEDSAVYYCARDSRFSYWGQGTLVTVSA VL: DIVMTQSHKFMSTSVGDRVSITCKASQDVRTAVAWYQQKPGQSPKLLISSTSYRYTGVPDRFTGSGSGTDFTFIISSVQAEDLAVYYCQQHYSTPLTFGAGTKLELK", "binding": "binds"},
      {"binder": "chimeric antibody 2G6 (antibody, human IgG1, V domains shown) VH: EVQLVESGGGLVKPGGSLKLSCAASGFTFSRYGMSWVRQTPEKRLEWVAGINGGGSYTYYLDTVKGRFTISRDNSRNTLYLQMSSLRSEDTAMYYCVSQGSNYYFDYWGQGTTLTVSS VL: DIRMTQSPSSMSVSLGDTVSITCHASQGISSNIGWLQQKPGKSFKALIYHGTNLEDGVPSRFSGSGSGADYSLTISSLESEDFADYYCVQYAQFPYTFGGGTKLEIK", "binding": "binds"},
      {"binder": "chimeric antibody 1C9 (antibody, human IgG1, V domains shown) VH: QVQLQQPGSVLVRPGASVKLSCKASGDTFTTYWMNWVKQRPGQGLEWIGGIYLNSGSSEYNEKFKGKATLSVDTSSSTAYMDLSSLTSEDSAVYYCARDSRFSYWGQGTLVTVSA VL: DIVMTQSHKFLSTSVGDRVSITCKASQDVSTAVAWYQQKPGQSPELLISSASYRYTGVPDRFTGSGSGTDFTFTISSVQAEDLAVYYCQQHYNTPLTFGAGTQLELK", "binding": "binds"}
    ]}
  ]
}
